No constants are given. Whether binding was seen depends on the method and setting. In cells and extracts the contact can be indirect. Some binding calls cover weakened binding; strength is not graded here. Tags and fused reporters may be left off the sequences shown.
T1: Myc-tagged Kel1 (S. cerevisiae) (UniProt P38853)
T1 sequence: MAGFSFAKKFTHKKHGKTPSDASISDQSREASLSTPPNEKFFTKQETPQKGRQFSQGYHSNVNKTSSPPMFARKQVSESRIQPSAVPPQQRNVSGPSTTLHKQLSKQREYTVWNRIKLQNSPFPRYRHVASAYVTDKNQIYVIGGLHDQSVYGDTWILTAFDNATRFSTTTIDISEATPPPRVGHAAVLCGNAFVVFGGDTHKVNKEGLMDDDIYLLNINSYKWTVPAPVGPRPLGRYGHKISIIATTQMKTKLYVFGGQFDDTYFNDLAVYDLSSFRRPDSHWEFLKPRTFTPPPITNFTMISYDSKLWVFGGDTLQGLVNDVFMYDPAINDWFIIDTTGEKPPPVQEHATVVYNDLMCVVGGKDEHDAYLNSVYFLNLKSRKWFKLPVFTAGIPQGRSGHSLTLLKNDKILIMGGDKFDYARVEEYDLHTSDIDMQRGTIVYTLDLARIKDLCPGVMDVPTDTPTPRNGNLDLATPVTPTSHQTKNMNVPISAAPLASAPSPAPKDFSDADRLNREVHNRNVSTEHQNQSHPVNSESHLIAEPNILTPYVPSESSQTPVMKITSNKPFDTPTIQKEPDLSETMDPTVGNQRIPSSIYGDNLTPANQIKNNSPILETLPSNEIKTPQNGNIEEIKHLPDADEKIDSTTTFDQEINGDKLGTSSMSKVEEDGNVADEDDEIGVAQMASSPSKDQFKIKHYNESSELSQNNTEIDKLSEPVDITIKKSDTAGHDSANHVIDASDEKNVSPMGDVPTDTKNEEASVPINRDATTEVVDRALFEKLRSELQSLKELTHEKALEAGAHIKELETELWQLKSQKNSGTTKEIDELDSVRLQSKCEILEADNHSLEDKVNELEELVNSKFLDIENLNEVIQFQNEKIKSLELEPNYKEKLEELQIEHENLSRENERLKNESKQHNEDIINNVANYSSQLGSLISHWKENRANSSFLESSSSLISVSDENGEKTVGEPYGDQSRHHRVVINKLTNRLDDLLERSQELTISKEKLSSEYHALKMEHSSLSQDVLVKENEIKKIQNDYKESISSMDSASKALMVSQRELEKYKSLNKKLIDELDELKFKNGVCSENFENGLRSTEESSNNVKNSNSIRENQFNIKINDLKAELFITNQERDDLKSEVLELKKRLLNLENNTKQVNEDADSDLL

The chains behind the UniProt entries cited, without tags or fusion partners.
UniProt P16892: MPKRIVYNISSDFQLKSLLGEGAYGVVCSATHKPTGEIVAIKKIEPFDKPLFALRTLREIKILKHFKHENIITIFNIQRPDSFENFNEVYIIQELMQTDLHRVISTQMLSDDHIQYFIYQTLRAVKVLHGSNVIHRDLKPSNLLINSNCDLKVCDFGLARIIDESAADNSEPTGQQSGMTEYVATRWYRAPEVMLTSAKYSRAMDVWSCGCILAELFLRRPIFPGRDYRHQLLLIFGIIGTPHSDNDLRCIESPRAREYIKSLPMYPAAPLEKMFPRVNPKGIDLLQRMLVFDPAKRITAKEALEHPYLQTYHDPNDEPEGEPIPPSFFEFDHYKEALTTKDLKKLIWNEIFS


Target: T1, Myc-tagged Kel1 (S. cerevisiae)
Assay: co-IP

Molecule	binding
MAPK Fus3 (from UniProt P16892 1-353) (enzyme)	binds
Ste2-GFP (receptor, UniProt D6VTK4 1-431) MSDAAPSLSNLFYDPTYNPGQSTINYTSIYGNGSTITFDELQGLVNSTVTQAIMFGVRCGAAALTLIVMWMTSRSRKTPIFIINQVSLFLIILHSALYFKYLLSNYSSVTYALTGFPQFISRGDVHVYGATNIIQVLLVASIETSLVFQIKVIFTGDNFKRIGLMLTSISFTLGIATVTMYFVSAVKGMIVTYNDVSATQDKYFNASTILLASSINFMSFVLVVKLILAIRSRRFLGLKQFDSFHILLIMSCQSLLVPSIIFILAYSLKPNQGTDVLTTVATLLAVLSLPLSSMWATAANNASKTNTITSDFTTSTDRFYPGTLSSFQTDSINNDAKSSLRSRLYDLYPRRKETTSDKHSERTFVSETADDIEKNQFYQLPTPTSSKNTRIGPFADASYKEGEVEPVDMYTPDTAADEEARKFWTEDNNNL	binds

Source: article doi:10.1101/2021.05.19.443414
